Binding data for seven molecules are collected here from PMC7190641.

By UniProt entry, the sequences of proteins in these tests, tags left out. Where a name states a change or a piece, a line headed by the entry shows the natural chain unless it says otherwise.
UniProt G5EG87: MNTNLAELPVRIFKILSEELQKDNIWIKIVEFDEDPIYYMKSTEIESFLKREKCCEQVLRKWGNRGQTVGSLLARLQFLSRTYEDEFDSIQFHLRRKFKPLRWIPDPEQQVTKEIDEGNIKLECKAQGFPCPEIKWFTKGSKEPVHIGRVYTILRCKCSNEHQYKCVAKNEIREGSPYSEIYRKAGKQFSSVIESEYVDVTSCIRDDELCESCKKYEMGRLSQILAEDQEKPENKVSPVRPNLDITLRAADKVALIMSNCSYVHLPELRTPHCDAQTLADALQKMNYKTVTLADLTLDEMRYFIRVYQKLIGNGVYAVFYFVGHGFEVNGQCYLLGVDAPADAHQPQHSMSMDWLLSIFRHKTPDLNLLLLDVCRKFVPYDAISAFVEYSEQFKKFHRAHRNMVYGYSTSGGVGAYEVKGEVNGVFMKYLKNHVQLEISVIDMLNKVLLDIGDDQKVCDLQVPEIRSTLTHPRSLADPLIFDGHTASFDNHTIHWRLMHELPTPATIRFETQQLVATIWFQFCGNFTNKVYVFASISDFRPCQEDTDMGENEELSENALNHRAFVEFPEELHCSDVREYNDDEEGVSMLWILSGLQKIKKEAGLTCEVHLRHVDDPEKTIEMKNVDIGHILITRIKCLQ
UniProt P34545: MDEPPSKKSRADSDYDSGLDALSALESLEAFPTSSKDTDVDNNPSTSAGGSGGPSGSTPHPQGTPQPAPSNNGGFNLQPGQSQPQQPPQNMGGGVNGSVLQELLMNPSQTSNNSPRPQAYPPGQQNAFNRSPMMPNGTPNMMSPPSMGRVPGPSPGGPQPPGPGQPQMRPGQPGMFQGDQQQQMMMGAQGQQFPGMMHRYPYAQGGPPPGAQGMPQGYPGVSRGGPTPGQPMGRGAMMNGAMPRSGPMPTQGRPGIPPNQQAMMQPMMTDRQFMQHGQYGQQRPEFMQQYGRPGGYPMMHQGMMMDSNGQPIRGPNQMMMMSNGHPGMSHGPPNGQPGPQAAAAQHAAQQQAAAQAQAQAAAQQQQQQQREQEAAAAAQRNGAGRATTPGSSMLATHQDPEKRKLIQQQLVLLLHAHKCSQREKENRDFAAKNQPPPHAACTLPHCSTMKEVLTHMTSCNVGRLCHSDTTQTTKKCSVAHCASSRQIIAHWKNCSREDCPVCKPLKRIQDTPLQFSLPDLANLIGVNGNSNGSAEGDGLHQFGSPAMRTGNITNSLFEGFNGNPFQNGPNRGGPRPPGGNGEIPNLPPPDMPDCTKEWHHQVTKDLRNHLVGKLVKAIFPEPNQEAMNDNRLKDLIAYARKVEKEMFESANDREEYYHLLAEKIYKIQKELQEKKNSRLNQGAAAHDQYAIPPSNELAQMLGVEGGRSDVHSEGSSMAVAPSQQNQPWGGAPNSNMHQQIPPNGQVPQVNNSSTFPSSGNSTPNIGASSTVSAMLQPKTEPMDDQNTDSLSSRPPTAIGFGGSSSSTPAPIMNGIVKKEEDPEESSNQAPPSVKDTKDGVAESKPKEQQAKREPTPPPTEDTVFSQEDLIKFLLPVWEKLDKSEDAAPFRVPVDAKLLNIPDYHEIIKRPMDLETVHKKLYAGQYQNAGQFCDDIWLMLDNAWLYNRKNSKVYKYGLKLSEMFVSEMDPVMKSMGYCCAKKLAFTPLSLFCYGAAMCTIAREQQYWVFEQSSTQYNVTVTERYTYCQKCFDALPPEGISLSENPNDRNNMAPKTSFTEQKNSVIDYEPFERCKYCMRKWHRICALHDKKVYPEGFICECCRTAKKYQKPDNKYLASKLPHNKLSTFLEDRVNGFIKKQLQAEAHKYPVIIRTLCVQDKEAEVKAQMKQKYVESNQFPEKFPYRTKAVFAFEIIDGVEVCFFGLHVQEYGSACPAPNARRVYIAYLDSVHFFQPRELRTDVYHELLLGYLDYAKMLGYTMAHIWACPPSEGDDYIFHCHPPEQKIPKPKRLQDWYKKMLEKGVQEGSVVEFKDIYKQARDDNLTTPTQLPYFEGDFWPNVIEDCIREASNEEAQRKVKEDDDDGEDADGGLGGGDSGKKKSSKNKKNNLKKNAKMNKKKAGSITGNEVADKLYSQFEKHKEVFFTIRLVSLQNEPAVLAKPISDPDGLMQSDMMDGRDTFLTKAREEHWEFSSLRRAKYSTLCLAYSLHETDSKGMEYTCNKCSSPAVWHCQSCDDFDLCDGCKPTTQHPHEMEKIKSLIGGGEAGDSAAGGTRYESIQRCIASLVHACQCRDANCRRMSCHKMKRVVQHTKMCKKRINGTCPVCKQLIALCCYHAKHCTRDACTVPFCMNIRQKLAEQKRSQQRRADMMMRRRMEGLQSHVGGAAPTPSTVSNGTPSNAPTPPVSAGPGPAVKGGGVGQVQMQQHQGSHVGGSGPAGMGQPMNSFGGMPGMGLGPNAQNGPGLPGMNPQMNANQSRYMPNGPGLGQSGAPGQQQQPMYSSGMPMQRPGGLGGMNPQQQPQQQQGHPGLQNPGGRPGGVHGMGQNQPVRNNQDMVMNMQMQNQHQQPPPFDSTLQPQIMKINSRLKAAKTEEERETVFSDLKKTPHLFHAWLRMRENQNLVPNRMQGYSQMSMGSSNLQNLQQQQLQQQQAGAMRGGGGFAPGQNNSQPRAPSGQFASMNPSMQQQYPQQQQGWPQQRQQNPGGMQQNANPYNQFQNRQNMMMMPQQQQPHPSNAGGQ

These are yes or no findings as the source states them, for the method shown. In cells and extracts the contact can be indirect. These calls come from enrichment with a bait or labelling near it, and not all partners need be listed. For some assays here: A no says only that the protein was not detected with the bait. For some assays here: Where a sequence is shown, tags or fusion partners need not be part of it.

What all share (assay): affinity purification with mass spectrometry; IP of epitope-tagged bait from clarified C. elegans extract (lysis buffer A: 50 mM HEPES pH 7.4, 100 mM KCl, 0.05% NP40, 10% glycerol) with GFP-Trap MA, Myc-Trap MA or anti-FLAG M2 magnetic beads, 3-4 h at 4 °C; SDS-PAGE, LC-MS/MS, total spectral counts; controls: unrelated proteins with the same epitopes
For assay [1], the target named is T1, NFKI-1::GFP (integrated nfki-1::gfp transgene) (C. elegans) (UniProt G5EDE9).
T1 sequence: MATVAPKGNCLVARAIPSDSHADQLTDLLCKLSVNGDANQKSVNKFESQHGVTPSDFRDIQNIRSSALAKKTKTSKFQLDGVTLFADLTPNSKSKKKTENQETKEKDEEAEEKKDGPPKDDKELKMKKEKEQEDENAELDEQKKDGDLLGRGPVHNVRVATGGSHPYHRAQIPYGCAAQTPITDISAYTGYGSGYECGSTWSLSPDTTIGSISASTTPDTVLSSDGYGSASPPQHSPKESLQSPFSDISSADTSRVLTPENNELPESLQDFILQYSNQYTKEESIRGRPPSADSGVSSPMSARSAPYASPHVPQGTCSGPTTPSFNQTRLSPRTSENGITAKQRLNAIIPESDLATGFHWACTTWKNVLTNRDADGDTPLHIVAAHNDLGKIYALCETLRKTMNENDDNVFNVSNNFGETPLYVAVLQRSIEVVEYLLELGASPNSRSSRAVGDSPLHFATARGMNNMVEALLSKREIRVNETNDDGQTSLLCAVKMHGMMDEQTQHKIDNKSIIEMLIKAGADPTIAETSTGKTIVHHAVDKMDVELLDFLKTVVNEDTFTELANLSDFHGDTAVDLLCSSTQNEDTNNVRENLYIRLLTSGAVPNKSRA

Assay [2] has as its target T2, ACTL-1-FLAG (endogenous ACTL-1 tagged with a FLAG epitope) (C. elegans) (UniProt Q18008).
T2 sequence: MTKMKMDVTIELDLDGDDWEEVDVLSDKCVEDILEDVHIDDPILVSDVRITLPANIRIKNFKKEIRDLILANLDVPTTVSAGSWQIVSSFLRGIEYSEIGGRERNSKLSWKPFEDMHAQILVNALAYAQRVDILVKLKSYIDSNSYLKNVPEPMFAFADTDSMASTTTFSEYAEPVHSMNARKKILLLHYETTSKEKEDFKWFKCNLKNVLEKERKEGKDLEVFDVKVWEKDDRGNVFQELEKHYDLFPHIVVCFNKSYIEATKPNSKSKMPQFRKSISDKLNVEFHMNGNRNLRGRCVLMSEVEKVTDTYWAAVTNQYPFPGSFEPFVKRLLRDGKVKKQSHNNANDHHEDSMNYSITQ

Assay [3] addresses MALT-1::GFP (GFP-tagged MALT-1 expressed pan-neuronally) (C. elegans) (UniProt G5EG87).

As to “CREB binding protein (CBP), cbp-1 (from UniProt P34545 1-2017)”, the binding entry in assay [1] is recorded as “binds”.

B1: PIK-1 (endogenous, C. elegans extract) (protein, UniProt G5ECP4 1-485)
chain: MDDSLGVSEVVMIPFMKREVLQQICAILDTDNTWETIAPYMPGIELRDVEGCKRYSSYNQSPSELLLRIWSSKGYSTTHLYQLFAKTKLIRLMRMMRSQVHEKYHYLENKVTNSTSRVSKQMVQPPGSQSASRLKKTEIKESSPSPAAAAASQLSRSNTDDTLRVAIEGTLPVTYCELLEATNGFAVSNVIGKGGYGTVYKGELKGTGGIVAVKRLHSGNDTSQNGSRERLRQSLTELRTLARFRHDNILPIYAYSLEGSEPCLVYQFMSNGSLEDRLLCRKGSVPLTWIQRKEISIGAGRGLGFLHSFGKTPIIHGDIKTANILLDKHMEPKIGDFGLCRDGHVEAEAMEKHPLIASHIKGTLAYLAPEFITSKILTTKLDVYSFGIVLLEIASGQRAYSDSRETRGLVEYCQVNKELAAHRKIPVREIFIDRRAPPLVGDEEKSFLDALIEVGLAGANNDRKVRPTMSQIVEYLCKNSIPPVV
With B1, the binding result in assay [2] and in assay [3] was “binds” each time.

B2: REGE-1 (C. elegans ortholog of the endoribonuclease regnase-1) (protein, UniProt Q95YE2 1-634)
chain: MDSTARGHAPLCRTSNQRGLGTRLNPYYQSTPHQPMVQSMSNPIGSYGEQGNAQIIGSSGQVLSTGPPPGLAPVQCNDFDSCYSSCDDISHPSLSRESSDPSKIDDDQTAPMIRYPAPEVVEFATKLGYSTEQLSHVLNTIGVDSRMDDVLSELVKMGLPGGKPENSGKSGSRNSPEPIMTSSASSSSASSSSSHRPIRQSVSIATSSPATSSSTPSKYNPDPSLRAVVVDGSNVAMLHGRKEVFSCAGLRECLNYFLERGHPEVLIFIPQYRREQPRSDSPITDQHILQEIERHIIYTPSRNVNGRRVVCHDDRYILRTAELKDAVIVSNDEYRDLTRENPAWRKIVEERLLMFTFVEDKFMPPDDPSGRHGPRIESFLSKVPVVSSNPLVCPYARKCTYGNKCKFYHPERANGQHMSVTERLMKENQQKKSLGAVKSMQYEMFKNKHAALSRTQSLNVVKQLTENMSQLPPTPESPMQMPRQHMQLQQANSAPWQQHTVVQRHGSSPLTPVNRQMNVYPDMYNMSQQQNHQVLPNQHGVIGGQRPPKMTTTVSQTHLFAPSTAVWGHSELSVGPVNTGSDESLAEVRSRVHFHLCNIFPHDFVESVMAANPEEVNAPVLCELIIRAQKEYRK
B2: the binding result in assay [3] is listed as “no binding”.

B3: NHR-49 (protein, UniProt O45666 1-501)
chain: MDYFLDASKHIQLNQIDEESSDDFMDLVDPLAEPCAVCGDKSTGTHYGVISCNGCKGFFRRTVLRDQKFTCRFNKRCVIDKNFRCACRYCRFQKCVQVGMKREAIQFERDPVGSPTSGASLNGTPFKKDRSPGYENGNSNGVGSNGMGQENMRTVPQSSSVIDALMEMEARVNQEMCNRYRRSQIFANGSGGSNGNDTDIQQGSDSGASAFAPPNRPCTTEVDLNEISRTTLLLMVEWAKTINPFMDLSMEDKIILLKNYAPQHLILMPAFRSPDTTRVCLFNNTYMTRDNNTDLNGFAAFKTSNITPRVLDEIVWPMRQLQMREQEFVCLKALAFLHPEAKGLSNSSQIMIRDARNRVLKALYAFILDQMPDDAPTRYGNILLLAPALKALTQLLIENMTLTKFFGLAEVDSLLSEFILDDINDHSTAPVSLQQHLSSPTTLPTNGVSPLNPAGSVGSVSSVSGITPTGMLSATLAAPLAIHPLQSQDSILNSEQNNHML
Turning to B3, the binding result in assay [3] was “binds”.

B4: TIR-1 (Toll/Interleukin-1 Receptor domain protein), C. elegans ortholog of SARM1 (protein, UniProt Q86DA5 1-981)
chain: MLPNRKPPRPSPSFQSLNNNNQRFPLRRSLKIAQAHSLPTVPSEDAKDDDLITPELSTDFDFREIQHRYLMALQNEQDGETTSTDDAFFELDDDDDLSSPSVPGSPVDPPSISVPLPPKSAPPCPTQPAPLTNGDLYPTILSNGTPIPNGRITPALSTVSVSLIHEARLQQSLSTPCNGSEEEMHNGQVRKESEYRRFKSEGSTAGASLPAAEKTHMDELSPVDQRSTSGTARFLIQQDSVVNPSTKMSNTEQVAMMHTLKTKLSKYQAMMDKAFEEIAKVEDANIIEGCTIVRKLMRKVWNTPKVSADLANALCDYLRDRDYFDKLIKMFISPNTAACDQVRMECGKVLEECTSSANLEYIVNKSYTKKIMIVAMKLNKTPDQQRLSLSLIGNLFKHSNAVSLSLIETDVIDHIILTFKRAPECPDILRHAALALANILLYTCFEGKKKIIQKKIPEWLFFLASQADDVTRYYACIAVCTIVSVKEFEPLVRKSDTMKLVEPFLQVHDPATFARDYHKYAQGNTKEWLERLLPMLQPSRRREARSVAAFHFTLEATIKKEQNKLDVFQEIGAIQALKEVASSPDEVAAKFASEALTVIGEEVPYKLAQQVPGWTCADVQYWVKKIGFEEYVEKFAKQMVDGDLLLQLTENDLKHDVGMISGLHRKRFLRELQTLKVAADYSSVDESNLDNFLMGLSPELSVYTYQMLTNGVNRSLLSSLTDEMMQNACGITNPIHRLKLTQAFETAKHPDDVEVAMLSKQIDVFISYRRSTGNQLASLIKVLLQLRGYRVFIDVDKLYAGKFDSSLLKNIQAAKHFILVLTPNSLDRLLNDDNCEDWVHKELKCAFEHQKNIIPIFDTAFEFPTKEDQIPNDIRMITKYNGVKWVHDYQDACMAKVVRFITGELNRTTPTTKEMPSISRKTTQQRWQTTNTVSRTGPSRSIGGPRMEPPTPTFTPTGSQERATSTRRKIQPSASTTSDRN
For B4, the binding entry in assay [3] was “binds”.

B5: NFKI-1 (endogenous, C. elegans extract) (protein, UniProt G5EDE9 1-611)
chain: MATVAPKGNCLVARAIPSDSHADQLTDLLCKLSVNGDANQKSVNKFESQHGVTPSDFRDIQNIRSSALAKKTKTSKFQLDGVTLFADLTPNSKSKKKTENQETKEKDEEAEEKKDGPPKDDKELKMKKEKEQEDENAELDEQKKDGDLLGRGPVHNVRVATGGSHPYHRAQIPYGCAAQTPITDISAYTGYGSGYECGSTWSLSPDTTIGSISASTTPDTVLSSDGYGSASPPQHSPKESLQSPFSDISSADTSRVLTPENNELPESLQDFILQYSNQYTKEESIRGRPPSADSGVSSPMSARSAPYASPHVPQGTCSGPTTPSFNQTRLSPRTSENGITAKQRLNAIIPESDLATGFHWACTTWKNVLTNRDADGDTPLHIVAAHNDLGKIYALCETLRKTMNENDDNVFNVSNNFGETPLYVAVLQRSIEVVEYLLELGASPNSRSSRAVGDSPLHFATARGMNNMVEALLSKREIRVNETNDDGQTSLLCAVKMHGMMDEQTQHKIDNKSIIEMLIKAGADPTIAETSTGKTIVHHAVDKMDVELLDFLKTVVNEDTFTELANLSDFHGDTAVDLLCSSTQNEDTNNVRENLYIRLLTSGAVPNKSRA
Take B5: the binding entry in assay [3] was “binds”.

B6: RLE-1 (C. elegans ortholog of roquin-1/2) (protein, UniProt O45962 1-952)
chain: MAPTGQGGQWQEVLCCSICNRHFNETFLPVSLICGHVICRKCAEKPENQTKPCPHDDWKTTHSPSEYPNNVALLSVIFPRKQCMTLSGAVSEAEKRVDQLSIQIAKFFREADSERGGTVSSREISRTLQRKVLALLCYQWREVDGRLKTLKMCRGISERVMIEIILSIQSNTHVSSQLWSAVRARGCQFLGPAMQDDVLRLILMTLETGECIARKNLVMYVVQTLASDYPQVSKTCVGHVVQLLYRASCFNVLKRDGESSLMQLKEEFRTYESLRREHDSQIVQIAFESGLRIGPDQWSALLYADQSHRSHMQSIIDKLQSKNSYQQGVEELRALAGSQTSMLVPAYRYFLTQVIPCLEFFAGIEHEDTSMRMIGDALHQIRILLKLHCSQDDLRKMPKEERRGVILQAEVPGGMGGGPGGSGGAEAGRIGGLHPLYSQIDETGRSISRTNPKDNSHNSPQTPPKQPRQKRYQMGIPPNRMGYSSDAPPFIPSHQQQPPPQFFNSQHLPQRFRGGRQRGAPPPPPPQPMPMLIGYDMPGAPMMQATEVLTADGQMVNGTPQRVVIMQSPTHLPGGPVVMIPQQQMVPPPQSMTPVGGPMGPMGPMTPSIPVQVPPNTMWTATSPTGSVIYPAASPPGQPPHTIWIQSTDGNMFPMFDRGSGGMVWGPGTMLRESGADAEQLLAKRYEILKRLQPSEDDDDPEDGGIGHVSYTVASSVLDDRMDHHPLTMIPVPTIDLPAIPISFANMPTEETMTMIGEMVQNRPRAPSLTAPSSNQPMNVNASASATVQAECGTMSVMDSICQPISTSAIHNSATIPQPVIPMVQVPVQVPIVPAENFNPNVPPPPPPPQGQPMLVDSAIGLLTPIRPILVAHPQNVVSNSLDKIVDVKERISEAQGNASEAENAHLRMELRMAESQMAHLDPYTKNNCLLRALQQVDMELQQLHLNPTVEG
In the case of B6, the binding entry in assay [3] is on record as “no binding”.
